# Data as given in the supplement of paper PMC6143611.
# Structures can show the parent of a compound that is named as a salt. ± gives the uncertainty stated by the source. Some of the results follow. Part of the spread comes from offsets between plates or batches.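 Larvae carried a heat-shock-induced fluorescent stripe in rod outer segments, set at 6 dpf; the shedding distance runs from this stripe to the outer segment tip, measured in confocal stacks, about three fish per compound. The controls got 0.2% DMSO vehicle, and the paper flagged compounds with at least a 20% change against the same-week control and p < 0.001 (Dunnett test on mixed-effects models).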
# Key:
# [1] = system: Danio rerio larva rod photoreceptor outer segment; assay: rod outer segment growth distance Dg, difference from same-week DMSO control mean; higher = more outer segment growth; conditions: 20 µM; treatment time: 4 days (6-10 dpf)
# [2] = system: Danio rerio larva rod photoreceptor outer segment; assay: rod outer segment shedding distance Ds, difference from same-week DMSO control mean; higher = less outer segment shedding; conditions: 20 µM; treatment time: 4 days (6-10 dpf)
SMILES,rod outer segment growth distance Dg [1],rod outer segment shedding distance Ds [2]
CC[C@H](NC(=O)[C@H](C)NC)C(=O)N1C[C@@H](O)C[C@H]1Cc1c(-c2[nH]c3cc(F)ccc3c2C[C@@H]2C[C@H](O)CN2C(=O)[C@H](CC)NC(=O)[C@H](C)NC)[nH]c2cc(F)ccc12 [Birinapant],-0.78 ± 0.16 um,0.46 ± 0.12 um
Cn1cc(C2=C(c3ccc(Cl)cc3Cl)C(=O)NC2=O)c2ccccc21,0.14 ± 0.15 um,0.58 ± 0.23 um
O=C(NC[C@H]1CN(c2ccc(N3CCOCC3=O)cc2)C(=O)O1)c1ccc(Cl)s1 [Rivaroxaban],-0.85 ± 0.17 um,0.05 ± 0.12 um
CC1(C)CC(=O)c2c(C(F)(F)F)nn(-c3ccc(C(N)=O)c(N[C@H]4CC[C@H](O)CC4)c3)c2C1,0.02 ± 0.16 um,0.03 ± 0.12 um
Cc1ccc(-c2c(-c3nn(C)c4ncnc(N5CC[C@H](N6CCCCC6)C5)c34)cnn2C)cc1,-0.44 ± 0.18 um,-0.34 ± 0.12 um
Cc1ccc(S(=O)(=O)Nc2nc3ccccc3nc2Nc2ccc3nsnc3c2)cc1,-0.97 ± 0.2 um,-0.68 ± 0.22 um
CC1(C)S[C@@H]2[C@H](NC(=O)[C@H](N)c3ccc(O)cc3)C(=O)N2[C@H]1C(=O)O [Amoxicillin Sodium],0.5 ± 0.29 um,-0.75 ± 0.15 um
C[C@H]1C[C@H]2[C@@H]3CCC4=CC(=O)C=C[C@]4(C)[C@@]3(F)[C@@H](O)C[C@]2(C)[C@@]1(O)C(=O)CO [Betamethasone],-1.4 ± 0.23 um,0.62 ± 0.18 um
CC(=O)Oc1cc2c(s1)CCN(C(C(=O)C1CC1)c1ccccc1F)C2 (configuration not stated) [Prasugrel],0.19 ± 0.23 um,-0.08 ± 0.23 um
NS(=O)(=O)c1cc2c(cc1Cl)NCNS2(=O)=O [Hydrochlorothiazide],0.02 ± 0.27 um,-0.34 ± 0.14 um
CC(C)(CO)[C@@H](O)C(=O)NCCC(=O)O [D-Pantothenic acid],0.87 ± 0.24 um,0.37 ± 0.28 um
CCN(CCO)CCCOc1ccc2c(Nc3cc(CC(=O)Nc4cccc(F)c4)[nH]n3)ncnc2c1 [Barasertib (AZD1152-HQPA)],-0.36 ± 0.28 um,-0.08 ± 0.21 um
CCOC(=O)[C@H](CCc1ccccc1)N[C@H]1CCCN2CCC[C@@H](C(=O)O)N2C1=O [Cilazapril Monohydrate],-0.44 ± 0.22 um,-0.08 ± 0.26 um
O=c1ncn2nc(Sc3ccc(F)cc3F)ccc2c1-c1c(Cl)cccc1Cl,-0.04 ± 0.16 um,-0.58 ± 0.21 um
CC#CCn1c(N2CCC[C@@H](N)C2)nc2c1c(=O)n(Cc1nc(C)c3ccccc3n1)c(=O)n2C [Linagliptin],0.29 ± 0.15 um,0.34 ± 0.15 um
Oc1ccc2ccccc2c1SSc1c(O)ccc2ccccc12,-1.3 ± 0.16 um,-0.47 ± 0.12 um

# Of the compounds above, these have a thiophene ring, fused or not.
SMILES,rod outer segment growth distance Dg [1],rod outer segment shedding distance Ds [2]
O=C(NC[C@H]1CN(c2ccc(N3CCOCC3=O)cc2)C(=O)O1)c1ccc(Cl)s1 [Rivaroxaban],-0.85 ± 0.17 um,0.05 ± 0.12 um
CC(=O)Oc1cc2c(s1)CCN(C(C(=O)C1CC1)c1ccccc1F)C2 (configuration not stated) [Prasugrel],0.19 ± 0.23 um,-0.08 ± 0.23 um

# Going on with the list:

SMILES,rod outer segment growth distance Dg [1],rod outer segment shedding distance Ds [2]
C[C@@H]1C[C@H]2[C@@H]3CCC4=CC(=O)C=C[C@]4(C)[C@@]3(Cl)[C@@H](O)C[C@]2(C)[C@@]1(OC(=O)c1ccco1)C(=O)CCl [Mometasone furoate],-0.48 ± 0.31 um,0.83 ± 0.25 um
CNS(=O)(=O)Cc1ccc2[nH]cc(CCN(C)C)c2c1 [Sumatriptan Succinate],0.55 ± 0.17 um,-0.04 ± 0.21 um
NS(=O)(=O)C#Cc1ccccc1 [Pifithrin-μ],-0.06 ± 0.23 um,-0.7 ± 0.17 um
CCc1cc(C(N)=S)ccn1 [Ethionamide],-0.16 ± 0.25 um,-0.2 ± 0.14 um
O=C(O)Cc1ccccc1Nc1c(Cl)cccc1Cl [Diclofenac Potassium],0.93 ± 0.18 um,-0.22 ± 0.15 um
CCC[C@H](NC(=O)[C@@H]1[C@H]2CCC[C@H]2CN1C(=O)[C@@H](NC(=O)[C@@H](NC(=O)c1cnccn1)C1CCCCC1)C(C)(C)C)C(=O)C(=O)NC1CC1 [Telaprevir (VX-950)],-0.66 ± 0.14 um,-0.41 ± 0.16 um
O=C(O)c1cccnc1Nc1cccc(C(F)(F)F)c1 [Niflumic acid],0.5 ± 0.17 um,-0.14 ± 0.16 um
COc1c(N2C[C@@H]3CCCN[C@@H]3C2)c(F)cc2c(=O)c(C(=O)O)cn(C3CC3)c12 [Moxifloxacin HCl],0.1 ± 0.15 um,-0.58 ± 0.15 um
N#Cc1ccc(C(c2ccc(C#N)cc2)n2cncn2)cc1 [Letrozole],-0.3 ± 0.23 um,0.19 ± 0.28 um
O=C(O)c1ccc2c(c1)nc(Nc1cccc(Cl)c1)c1ccncc12 [CX-4945 (Silmitasertib)],0.12 ± 0.31 um,-0.36 ± 0.3 um
Cc1ccc(NC(=O)c2ccc(CN3CCN(C)CC3)cc2)cc1Nc1nccc(-c2cccnc2)n1 [Imatinib Mesylate (STI571)],-0.12 ± 0.18 um,-0.84 ± 0.23 um
CCN(CC)CCOC(=O)C(c1ccccc1)c1ccccc1 [Adiphenine HCl],0.89 ± 0.26 um,-1.01 ± 0.29 um
S=c1[nH]cnc2nc[nH]c12 [Mercaptopurine (6-MP)],0.4 ± 0.15 um,-0.16 ± 0.15 um
C[N+](C)(C)CC(O)CC(=O)[O-] (racemic) [DL-Carnitine HCl],-0.3 ± 0.33 um,-0.68 ± 0.35 um
CC1C(=O)OC2C(O)C34C5CC(C(C)(C)C)C36C(OC(=O)C6O)OC4(C(=O)O5)C12O (configuration not stated) [Ginkgolide B],1 ± 0.31 um,-0.03 ± 0.24 um
